Source: PubChem BioAssay AID1508600 (Functional Genomics Laboratory (NCATS/FGL), 2020)
Screen size: about 53,000 sequences; about 3,700 (7%) were called active.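 Rule for the calls: active = gene knockdowns whose robust z-score for IL-1 alpha signal is at least 2 or at most -2, so actives lie on both sides; inactive = the rest.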 The list shows a part of the results.

experiment: Components of the Cytosolic LPS Sensing Pathway: Gene Identification via Genome-wide siRNA Screen; conditions: RAW264.7 macrophages, IL-1a HTRF, actives lie on both sides, screened at 100 nM (by protocol), cells primed 5 h with Pam3CSK4 first;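 note: robust z of the log signal after scaling to non-targeting control siRNA wells of the plate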
Procedure, shortened: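 Mouse macrophage line RAW264.7 is transfected with siRNA (100 nM final), grown 48h, primed with TLR ligand Pam3CSK4 5 h and given intracellular LipidA 24 h. IL-1a in supernatant is read by HTRF and viability by luminescence.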

Row | Sequence | z-score
1 | GCUUCAGCGUGAAAAAGCCTT against Gorab | inactive: 0.0143
2 | GGAAGAUAAGCUAAAUAUCTT against Clca3b | inactive: 0.123
3 | GCCCACAUUUGUAUUACUUTT against Rabepk | inactive: -1.08
4 | GGUUGGUAGGAUGGACAAGTT against Rab11b | active: 2.45
5 | GGUCUUGAGGUCAUUCUCCTT against Il24 | inactive: 0.396
6 | GGGAUAAGGGAAGUUAGGUTT against Glt28d2 | inactive: -0.457
7 | GCCAAAUUAAGUAUCUUGATT against Lamp2 | inactive: 0.371
8 | GGCAUUGCUUCAUGGCUCUTT against Tmprss5 | inactive: -0.166
9 | CCUUCAGUGGUUUGAACCGTT against Dnd1 | active: 2.59
10 | GGCCAUUUUUGAAAGCUAATT against Dcdc2a | inactive: -1.08
11 | GGAGGUAGAUGAACUUUAATT against Syt13 | inactive: 0.377
12 | CCAAGUAGAUUGUACCUAUTT against Fuca1 | inactive: 1.67
13 | GGAUCCGUGAAUGUAGUCATT against Rapgef4 | inactive: -0.793
14 | GGUGAUGCUAAGAAGUUACTT against Rnf122 | inactive: -1.57
15 | GGAAAUCACUGGUUUUCAATT against Asah2 | active: 2.88
16 | GGACAUUCGGCUAUAGCACTT against P2ry2 | inactive: -1.02
17 | CCUCCAGAUAACAAAUGCATT against Dlx3 | inactive: 0.335
18 | CCAACUAAUCCCAUAUUCCTT against Tmem43 | inactive: 0.0511
19 | GGCCCACAAAAGGUAUGAATT against AW551984 | inactive: 1.71
20 | GCUCAGCUAUCAAAACUUUTT against Snx20 | inactive: -0.703
21 | GCCUUACCAACUUCAGUUATT against Rps27l | inactive: 0.263
22 | GGACGAUUCUUUUAUUUGATT against Fam78b | inactive: -1.22

Row | Sequence | z-score
23 | GGAAAGAUUGUACCAGUUGTT against Cmpk1 | active: 2.58
24 | GGUGGUGUUUGAAAAGUGUTT against Mst1 | inactive: -0.571
25 | GGUCAAGUACAAAAGAGAUTT against Nebl | inactive: -0.39
26 | GCGAACUUUUACAUUUCGATT against Gmpr | inactive: 0.272
27 | GGAGACCAUAAACAUAUUUTT against Drc3 | inactive: -1.49
28 | GGAAAAAGUGACAUUUUCUTT against AW551984 | inactive: 1.32
29 | GGAGAAUUACUCCUUUUUGTT against Med9 | inactive: 0.928
30 | CCAUAAUAGAGGCAAUUACTT against Wscd1 | inactive: 0.302
31 | GGUUUUACAUCUAUGGAGUTT against 4933417A18Rik | inactive: -0.449
32 | CCUGAAGAGGAUGAUAUGGTT against Fam221a | inactive: 0.144
33 | CGCACGAAGCUCUUUGUGUTT against Tmem106a | inactive: 0.348
34 | GGUCCAAGCUUAAAUUUGUTT against Mrpl16 | inactive: 1.05
35 | GACCGGUCAAGUUUUUUCGTT against Pfn1 | inactive: -0.164
36 | GGAGUUGUGAAUUUCUCGUTT against Sri | inactive: -0.198
37 | GGAAAAAGGAGAGAAUGAATT against Ccdc38 | inactive: -1.69
38 | GGAGAAGCUGAAGACCAAGTT against Rpl35 | inactive: -0.00694
39 | GCGAGAUGUAGUAACAGAGTT against Adam15 | inactive: 1.06
40 | GCAUUGUGCUCAAAUCUGCTT against C1qtnf7 | inactive: -0.168
41 | GGAUUGAGGCUAAGUAGCGTT against Tnfrsf13b | inactive: 0.00112
42 | GCAUCAUGUCAUUCUUUACTT against Fstl5 | inactive: 0.00517
43 | GCAAGCCAACGUGUCGGAATT against Prpf31 | inactive: 1.38
44 | GCUAAGGACACAAAAUCCATT against Slc38a10 | inactive: 0.129

In a second layout: results already given

| Row | Sequence | z-score |
| --- | --- | --- |
| 25 | GGUCAAGUACAAAAGAGAUTT against Nebl | inactive: -0.39 |
| 26 | GCGAACUUUUACAUUUCGATT against Gmpr | inactive: 0.272 |
| 29 | GGAGAAUUACUCCUUUUUGTT against Med9 | inactive: 0.928 |
| 34 | GGUCCAAGCUUAAAUUUGUTT against Mrpl16 | inactive: 1.05 |
| 37 | GGAAAAAGGAGAGAAUGAATT against Ccdc38 | inactive: -1.69 |
| 38 | GGAGAAGCUGAAGACCAAGTT against Rpl35 | inactive: -0.00694 |
| 42 | GCAUCAUGUCAUUCUUUACTT against Fstl5 | inactive: 0.00517 |

Following part:

Row | Sequence | z-score
45 | GGUGUUGAGACCAAUUAGCTT against Dqx1 | inactive: -0.884
46 | CGAAGCAAGAGCACUGCCUTT against Atp6v1h | inactive: 1.75
47 | CGACAUGUAAAACUAUUGUTT against Cd300e | inactive: 0.864
48 | GCUUUAUUGAUUCCACUAGTT against Zfp804a | inactive: -0.0417
49 | GCGAACGGACAUCUCCUUCTT against Akr1b8 | inactive: 1.03
50 | GGCUUUUUUGCUAUCCUAUTT against Hoxc5 | inactive: -0.623
51 | CCUUUCACUAGCUAAGUGATT against Fbxl20 | inactive: 0.716
52 | GGUGUACUUUAUCUCACGATT against Olfr6 | inactive: 1.1
53 | GGAGAAGCAUGGCUAUAACTT against Rcor2 | inactive: -0.393
54 | GCAAGUCCUCUACCUUCUCTT against Vmn1r210 | inactive: -1.65
55 | GGCUAACAACAUCUUCUCCTT against Tlr7 | inactive: -1.64
56 | GGACAAGAAGAAGUCCAUUTT against Isl2 | inactive: -0.127
57 | CCUUUUCCGGUUAAAGCAGTT against Prmt3 | inactive: 0.229
58 | GCAAGAAUCGAUAUGAGAGTT against Cnmd | inactive: 0.561
59 | GGCAAGUCUCAAAUUAUUUTT against D930030D11Rik | inactive: 0.255
60 | GGAGAUUUGUCAGAACCUCTT against Grk2 | inactive: 0.261
61 | GGCGAUGGAAAGACUGCACTT against Hus1b | inactive: 0.311
62 | GGUCAAAGGGAAACAAGUUTT against Creb3l4 | active: -2.02
63 | GGGCAAAAGUUUAGAAAUCTT against Zfp697 | inactive: 0.391
64 | GGUUGGUGGUGCAGAUAGATT against Krt31 | inactive: 0.0397
65 | CCGUUCUCCAGGACUCUUUTT against Trir | inactive: -1.9
66 | GGCAUAGGUAUAUUUGAGUTT against Lep | inactive: -0.187

Row | Sequence | z-score
67 | CCUGAUUAAUGUGACUGGGTT against Dbr1 | inactive: 0.347
68 | GGUUUGGCAAACAUUUCAUTT against Akr1c20 | active: 2.02
69 | GCGUAUAGUUUCGAGAAAUTT against Mettl8 | inactive: 0.46
70 | GGCAUGAACAACAUUACCATT against Zfp811 | inactive: -1.25
71 | GGAGAUGCAGAAAAUGAAUTT against Prim1 | inactive: 0.0789
72 | GGAAUUUGGUUAAAUGGAATT against Dio2 | inactive: -1.18
73 | GGCCCAAAGUUUAUCCAAGTT against Rasl12 | inactive: 1.78
74 | GGUUACCAUCAUUUAGAGATT against Pot1b | inactive: -1.27
75 | CCAUAUCAGUUCAUUCCAATT against Dok7 | inactive: -0.98
76 | GGAUUUUCUACUCUAAAGATT against Tnfrsf19 | inactive: -0.226
77 | GGGCCUUUGAAAACACCCUTT against Dgkd | inactive: 0.363
78 | CCUACGAGUUCAUCGUGUATT against Slc25a33 | inactive: 0.187
79 | GGAACUUUGCCAUCUCUCCTT against Insrr | inactive: -0.0829
80 | GGUGGUUAUGAUCUAUGAUTT against Dazap1 | inactive: -1.43
81 | GGAACUUCCUGAGGAUAAGTT against Ccdc28a | inactive: 0.0804
82 | GGACUUCUACCACUGGAGGTT against Alox12b | inactive: -0.39
83 | GCCAGUACCCAUAUGACAGTT against Irx4 | inactive: 0.698
84 | GGACAUGUCCGAAUACUACTT against Pdss1 | active: 2.34
85 | CCAAAUUGUCUCUUCUAACTT against Dnah1 | inactive: 0.0269
86 | GGUGAAGCAGAUCAACAAGTT against Stmn2 | inactive: 0.107
87 | GGAGUAUCGGUGACUACGGTT against Chst9 | inactive: -1.34
88 | GGUUAUCUUCUCUGUAACGTT against Nsun3 | inactive: 0.496

Row | Sequence | z-score
89 | GGCCAUUGUGACAAACAGATT against Ltf | inactive: -0.69
90 | GCCAGCUAAAGAAGUCUAUTT against Gpr17 | active: 2.81
91 | CGACCCUAAUCUGGUGAACTT against Mfap5 | inactive: -0.283
92 | GGCCAUGUGUAAUUGAAGATT against 9230112E08Rik | inactive: 0.216
93 | GGACCAGAAACGCAUGCUUTT against Maml3 | inactive: -0.762
94 | GGCAUUUUCUAAUGGCUAUTT against Spef2 | inactive: 1.33
95 | GGUAUCAAUAAAGUUGUUGTT against Stk11ip | inactive: 1.09
96 | GGUAACCAGUCAACACCCUTT against Cd19 | inactive: 0.841
97 | GGUGGCUCUCCAAGUUCUATT against Uchl4 | inactive: -0.279
98 | GGAAGAGUGUUUAAACUAUTT against Kbtbd8 | inactive: -0.591
99 | GCGAGAACCAAGACCUUUCTT against Tyms | inactive: -0.248
100 | GGCUGUAAUUUUGAACAAUTT against Rnf17 | inactive: -1.42
101 | GGACAAAGUCACAGAGUCCTT against Slc26a5 | active: -2.08
102 | GGAGAAAAUCAAGGUGUUATT against Cux2 | inactive: -0.361
103 | CGACCACUUGGUGAUGCUCTT against Rcc1 | inactive: 0.964
104 | GGUGAAGCAGAAAGAAAACTT against Pank4 | inactive: -0.477
105 | GGAACCAGAAAGGACAGUCTT against H2-Eb1 | inactive: 0.538
106 | GGAACCUAGAGAAAAAGAATT against Iyd | inactive: -1.18
107 | GGAAUCAAAUUUGAUGCCATT against Cckar | inactive: 0.479
